From PubChem BioAssay AID504834 (National Center for Advancing Translational Sciences (NCATS), 2011)
The campaign covered roughly 320,000 compounds. About 22,000 (6.9%) were called active. Inconclusive means that the source gave no clear call. Such entries were picked first, then a sample of the others. Calls come from the whole dose curve; as a rule, active = well fitted inhibition curve with a large enough effect; inconclusive = small, poorly fitted or top-dose-only effect, or another doubt; inactive = no such curve, though single readings can be large or run the other way. Where the call is inconclusive, the potency comes from a doubtful curve fit.

experiment: Primary qHTS for delayed death inhibitors of the malarial parasite plastid, 96 hour incubation; conditions: P. falciparum luciferase reporter growth; series mostly up to 28.7 µM
Summary of the method: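 Two parasite generations (96 h, 37 C, 5% CO2) of compound exposure in infected erythrocytes (0.05% parasitemia, 2% hematocrit). Luciferase-reporter P. falciparum; decreased luminescence indicates inhibited growth, aimed at apicoplast-acting delayed death.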
% is set by controls: 0 for no effect and ±100 for the full control effect; potency is the fitted concentration of half-maximal effect.

Row | Structure (SMILES) | Potency | activity change, negative = inhibition
1 | Nc1nc(CN2CCN(C(=O)c3ccco3)CC2)nc(Nc2cccc(Cl)c2)n1 | inactive | –
2 | Cc1onc(-c2ccccc2)c1C(=O)NC(CC(=O)O)c1ccc(OC(C)C)cc1 (configuration not stated) | inconclusive: 13.1 µM [inhibitor, single point] | –
3 | COc1ccc(/C=C/C(=O)Nc2ccc(NC(C)=O)cc2)cc1S(=O)(=O)N1CCOCC1 | inconclusive: 14.7 µM [inhibitor, single point] | –
4 | CCC(=O)N1CCN(c2ccc(NC(=O)c3ccc(C#N)cc3F)cc2Cl)CC1 | inconclusive: 6.57 µM [inhibitor, partial curve, poor fit] | –
5 | CCCn1c(N)c(C(=O)CSc2nnc3n2CCCCC3)c(=O)[nH]c1=O | inconclusive: 16.5 µM [inhibitor, single point] | –
6 | COc1ccc(C(=O)Nn2c(C)nc3ccccc3c2=O)cc1[N+](=O)[O-] | inconclusive: 18.5 µM [inhibitor, single point] | –
7 | CCOC(=O)c1cnc2ccc(OC)cc2c1NCc1ccccc1 | inconclusive: 1.04 µM [inhibitor, partial curve, poor fit] | –
8 | COc1ccc(-c2noc(-c3ccco3)n2)cc1OC | inconclusive: 9.28 µM [inhibitor, partial curve] | –
9 | CCCc1cc(CNC(=O)C2CCC(=O)N(Cc3ccccc3F)C2)on1 (configuration not stated) | inconclusive: 4.65 µM [inhibitor, partial curve] | –
10 | Cc1ccccc1NC(=O)CCS(=O)(=O)c1ccc(Br)cc1 | inactive | –
11 | Cc1ccc(S(=O)(=O)N2CCCCC2)cc1C(=O)N1CCN(c2ccccn2)CC1 | inactive | –
12 | N#Cc1cc2c(=O)n3ccccc3nc2n(-c2ccccc2Cl)c1=O | inactive | –
13 | O=C(N/N=C/c1ccc2c(c1)OCO2)c1ccc2ccccc2n1 | inactive | –
14 | COc1cccc(N2CCN(C(=O)c3ccc(CS(=O)Cc4ccc(Cl)cc4)o3)CC2)c1 (configuration not stated) | inconclusive: 0.104 µM [inhibitor, full curve, poor fit] | –
15 | Cc1ccc(CNC(=O)C2CN(S(C)(=O)=O)c3cc(Cl)ccc3O2)cc1 (configuration not stated) | – | inactive: -71.1% [at 1.15 µM]
16 | N#Cc1ccc(-c2nc3cc(C#N)c(C#N)cc3nc2-c2ccccc2)cc1C#N | active: 5.22 µM | –
17 | CC(=O)c1ccc(N2CCN(C(=O)C3CCN(S(=O)(=O)Cc4ccccc4)CC3)CC2)cc1 | inconclusive: 18.5 µM [inhibitor, single point] | –
18 | CSCCC(NS(=O)(=O)c1ccc(C)cc1)C(=O)Nc1ccc(C)cn1 (configuration not stated) | inactive | –
19 | Cc1ccc(CN2CCc3c(OCC(=O)Nc4cc(C)ccc4C)cccc3C2=O)cc1 | active: 5.86 µM | –
20 | CCn1cc(C(=O)NCCN(CC(C)C)CC(C)C)c(=O)c2cc(S(=O)(=O)N3CCOCC3)ccc21 | inactive | –
21 | CN(C)S(=O)(=O)c1ccc(NC(=O)COc2cccc3c2OC(C)(C)C3)cc1 | inconclusive: 10.4 µM [inhibitor, partial curve, poor fit] | –
22 | COc1ccc(NC(=S)N/N=C2/CCCc3c(C)cc(C)cc32)cc1 | inactive | –
23 | COc1ccc(Cc2nnc(NC(=O)C3CCCO3)s2)cc1OC (configuration not stated) | inconclusive: 0.0738 µM [inhibitor, partial curve, poor fit] | –

Looked up above:
Potency, Cc1ccc(S(=O)(=O)N2CCCCC2)cc1C(=O)N1CCN(c2ccccn2)CC1 reads inactive
Potency, Cc1ccc(CN2CCc3c(OCC(=O)Nc4cc(C)ccc4C)cccc3C2=O)cc1 reads active: 5.86 µM

Laid out differently: results already given.
Row	Structure (SMILES)	Potency	activity change, negative = inhibition
21	CN(C)S(=O)(=O)c1ccc(NC(=O)COc2cccc3c2OC(C)(C)C3)cc1	inconclusive: 10.4 µM [inhibitor, partial curve, poor fit]	–
22	COc1ccc(NC(=S)N/N=C2/CCCc3c(C)cc(C)cc32)cc1	inactive	–

Further compounds:

Row | Structure (SMILES) | Potency | activity change, negative = inhibition
24 | CCC(C)(C)n1nnnc1C(c1cc2cc(OC)c(OC)cc2[nH]c1=O)N1CCc2ccccc21 (configuration not stated) | inconclusive: 8.28 µM [inhibitor, single point] | –
25 | COc1ccccc1CN(C)C(=O)c1ccc(COc2ccccc2)cc1 | inactive | –
26 | Cc1ccc(-n2nnnc2SCC(=O)Nc2ccccc2N2CCCCC2)cc1C | inconclusive: 18.5 µM [inhibitor, single point] | –
27 | CCCCn1c(CN2CCN(C(=O)OCC)CC2)nc2c1c(=O)[nH]c(=O)n2C | inconclusive: 18.5 µM [inhibitor, single point] | –
28 | O=C(NC1CCCCC1)c1ccc(CNc2nc(=S)[nH]c3ccccc23)cc1 | inconclusive: 14.7 µM [inhibitor, single point] | –
29 | COc1cccc(CN2CCN(C(=O)Cc3ccccc3OC)CC2)c1 | inconclusive: 1.17 µM [inhibitor, partial curve, poor fit] | –
30 | COc1ccc(/C=C2\SC(=S)N(CCC(=O)Nc3ccc(C(=O)O)cc3)C2=O)cc1 | inactive | –
31 | Cc1ccc(OCC(=O)N/N=C\c2c(C)[nH]n(-c3ccccc3)c2=O)c([N+](=O)[O-])c1 | inconclusive: 13.1 µM [inhibitor, single point] | –
32 | O=C(COc1ccccc1Cl)NCCNC(=O)c1ccncc1 | inconclusive: 3.7 µM [inhibitor, single point] | –
33 | COc1ccc(Cl)cc1N(CC(=O)NCC(C)C)S(=O)(=O)c1ccc(C)c([N+](=O)[O-])c1 | active: 9.28 µM | –
34 | COc1ccc(CNC(=O)CN(Cc2cccs2)C(=O)CCC(=O)Nc2ccccn2)cc1 | inconclusive: 14.7 µM [inhibitor, single point] | –
35 | CC(C)c1ccc(NC2CCCN(C(=O)c3cccc4nccnc34)C2)cc1 (configuration not stated) | active: 4.65 µM | –
36 | O=C(CN(Cc1ccco1)C(=O)c1cc(=O)[nH]c2ccccc12)Nc1ccccc1C(F)(F)F | inconclusive: 18.5 µM [inhibitor, single point] | –
37 | COc1cc(/C=C/C(=O)N2C(=O)c3cccc(N)c3C2=O)cc(OC)c1OC | inconclusive: 13.1 µM [inhibitor, single point] | –
38 | CCCc1nc2ccc(NC(=O)c3cccs3)cc2c(=O)n1Cc1ccccc1Cl | inconclusive: 13.1 µM [inhibitor, single point] | –
39 | COc1cccc(-c2cc(C(=O)NCCCn3ccnc3)no2)c1 | inconclusive: 0.165 µM [inhibitor, full curve] | –
40 | Cc1nn(CCC(=O)NNC(=S)Nc2ccc([N+](=O)[O-])cc2)c(C)c1[N+](=O)[O-] | inconclusive: 16.5 µM [inhibitor, single point] | –
41 | Cn1c(SCC(=O)NCC2CCCO2)nnc1-c1c[nH]c2ccccc12 (configuration not stated) | inconclusive: 1.85 µM [inhibitor, single point] | –
42 | Cc1cccc(C(=O)Nc2cccc3c2CCCC3)c1 | inactive | –
43 | Cc1ccc(C(=O)Nc2cc3[nH]c(=O)oc3cc2C)cc1 | inconclusive: 13.1 µM [inhibitor, single point] | –
44 | CCn1cc(C(=O)NCc2ccccc2F)c(=O)c2ccc(C)nc21 | inconclusive: 9.28 µM [inhibitor, single point] | –
45 | CC(=O)Nc1ccc(NC(=O)CSc2nnnn2-c2ccccc2F)cc1 | inconclusive: 18.5 µM [inhibitor, single point] | –
46 | COc1cc2ncnc(NCCc3ccccc3)c2cc1OC | inconclusive: 1.85 µM [inhibitor, full curve, poor fit] | –

Another view of two compounds above:
Row	Structure (SMILES)	Potency	activity change, negative = inhibition
35	CC(C)c1ccc(NC2CCCN(C(=O)c3cccc4nccnc34)C2)cc1 (configuration not stated)	active: 4.65 µM	–
36	O=C(CN(Cc1ccco1)C(=O)c1cc(=O)[nH]c2ccccc12)Nc1ccccc1C(F)(F)F	inconclusive: 18.5 µM [inhibitor, single point]	–

More entries follow.

Row | Structure (SMILES) | Potency | activity change, negative = inhibition
47 | CCOc1cc(NC(=O)c2ccco2)c(OCC)cc1NC(=O)Cc1ccc(OC)c(OC)c1 | inactive | –
48 | CCc1nnc(NC(=O)c2cccc(NC(=O)C(C)C)c2)s1 | inactive | –
49 | NC(=O)c1ccc(NC(=O)COC(=O)c2c[nH]c3ccccc23)cc1 | inactive | –
50 | CCc1ccccc1NC(=O)CN(C)C(=O)CSc1nnc(Nc2cccc(C)c2C)s1 | inconclusive: 10.4 µM [inhibitor, single point] | –
51 | COc1ccccc1N1CCN(C(=O)COc2ccc(S(=O)(=O)NC(C)(C)C)cc2)CC1 | inconclusive: 14.7 µM [inhibitor, single point] | –
52 | CCn1c(O)c(C=NCCN2CCOCC2)c(=O)[nH]c1=S | inconclusive: 2.62 µM [inhibitor, single point] | –
53 | COc1ccc(NC(=S)Nc2cccc3ccccc23)cc1OC | inconclusive: 18.5 µM [inhibitor, single point] | –
54 | COCCOc1cc2ncnc(N3CCC(C(=O)O)CC3)c2cc1OCCOC | inactive | –
55 | CC(Oc1cccnc1[N+](=O)[O-])C(=O)Nc1cccc(Cl)c1 (configuration not stated) | inconclusive: 20.8 µM [inhibitor, partial curve, poor fit] | –
56 | O=C(c1cc2cc(Br)cc(Br)c2oc1=O)N1CCOCC1 | inconclusive: 18.5 µM [inhibitor, single point] | –
57 | COC(=O)c1sc2ccccc2c1-n1cccc1C(=O)C(=O)Nc1ccc(F)cc1 | inconclusive: 18.5 µM [inhibitor, single point] | –
58 | O=C(c1ccc2ccccc2c1)N1CCN(S(=O)(=O)/C=C/c2ccccc2)CC1 | inconclusive: 14.7 µM [inhibitor, partial curve, poor fit] | –
59 | COc1ccc(CNC(=O)CCS(=O)(=O)c2cccc3nonc23)cc1 | inconclusive: 13.1 µM [inhibitor, single point] | –
60 | O=C(O)C1=C[C@@H](c2ccccc2)C[C@@H](OCc2ccc(CO)cc2)O1 | inactive | –
61 | c1ccc2c(c1)OCC(CN1CCCCC1)O2 (configuration not stated) | inconclusive: 1.07 µM [inhibitor, partial curve, poor fit] | –
62 | CC1(C(=O)O)CCC2(C)CCC3(C)C(=CC(=O)C4C5(C)CCC(O)C(C)(C)C5CCC43C)C2C1 (configuration not stated) | inactive | –
63 | CCc1cccc(NC(=O)C2CCN(S(=O)(=O)c3ccc4c(c3)CC(C)N4C(C)=O)CC2)c1 (configuration not stated) | inactive | –
64 | Cc1cc(C)nc(NC(=O)c2c(-c3ccccc3Cl)noc2C)n1 | inconclusive: 18.5 µM [inhibitor, single point] | –
65 | Cc1cccnc1NC(=O)CN1C(=O)COc2ccc(Cl)cc21 | inconclusive: 18.5 µM [inhibitor, single point] | –
66 | Cc1nc(Cl)sc1C(=O)Nc1ccccc1 | inconclusive: 18.5 µM [inhibitor, single point] | –
67 | CC(C)CNc1nc(N)c([N+](=O)[O-])c(NCc2ccccc2)n1 | inconclusive: 6.57 µM [inhibitor, partial curve] | –
